These are yes or no findings as the source states them, for the method shown. Binding seen in cells or lysates may run through a third protein. Some entries that bind do so weakly or less than the wild type.
Target: Flag-Avitag-RBBP4 (in vivo biotinylated RBBP4) (mouse) (UniProt Q60972)
Test: co-IP; Biotin immunoprecipitation: lysate (50 mM Tris-HCl pH 7.9, 150 mM NaCl, 1% NP-40) of Flag-Avitag-Rbbp4-overexpressing 46C mESCs, 1 mg protein, M280 Streptavidin Dynabeads overnight at 4°C, four washes in lysis buffer, western blots; Flag-Avitag cells as control

The chains behind the UniProt entries cited, without tags or fusion partners.
UniProt Q60972: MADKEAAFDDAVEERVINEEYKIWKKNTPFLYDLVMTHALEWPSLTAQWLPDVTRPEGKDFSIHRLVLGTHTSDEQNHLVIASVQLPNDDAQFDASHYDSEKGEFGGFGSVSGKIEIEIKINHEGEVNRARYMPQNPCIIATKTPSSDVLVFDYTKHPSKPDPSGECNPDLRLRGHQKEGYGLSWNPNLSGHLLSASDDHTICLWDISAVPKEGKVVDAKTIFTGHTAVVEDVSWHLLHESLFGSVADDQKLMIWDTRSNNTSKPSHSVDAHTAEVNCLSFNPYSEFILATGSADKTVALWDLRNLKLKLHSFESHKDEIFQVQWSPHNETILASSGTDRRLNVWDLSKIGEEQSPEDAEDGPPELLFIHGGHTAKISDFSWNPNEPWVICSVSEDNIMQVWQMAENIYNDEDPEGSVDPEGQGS
UniProt Q6PDQ2: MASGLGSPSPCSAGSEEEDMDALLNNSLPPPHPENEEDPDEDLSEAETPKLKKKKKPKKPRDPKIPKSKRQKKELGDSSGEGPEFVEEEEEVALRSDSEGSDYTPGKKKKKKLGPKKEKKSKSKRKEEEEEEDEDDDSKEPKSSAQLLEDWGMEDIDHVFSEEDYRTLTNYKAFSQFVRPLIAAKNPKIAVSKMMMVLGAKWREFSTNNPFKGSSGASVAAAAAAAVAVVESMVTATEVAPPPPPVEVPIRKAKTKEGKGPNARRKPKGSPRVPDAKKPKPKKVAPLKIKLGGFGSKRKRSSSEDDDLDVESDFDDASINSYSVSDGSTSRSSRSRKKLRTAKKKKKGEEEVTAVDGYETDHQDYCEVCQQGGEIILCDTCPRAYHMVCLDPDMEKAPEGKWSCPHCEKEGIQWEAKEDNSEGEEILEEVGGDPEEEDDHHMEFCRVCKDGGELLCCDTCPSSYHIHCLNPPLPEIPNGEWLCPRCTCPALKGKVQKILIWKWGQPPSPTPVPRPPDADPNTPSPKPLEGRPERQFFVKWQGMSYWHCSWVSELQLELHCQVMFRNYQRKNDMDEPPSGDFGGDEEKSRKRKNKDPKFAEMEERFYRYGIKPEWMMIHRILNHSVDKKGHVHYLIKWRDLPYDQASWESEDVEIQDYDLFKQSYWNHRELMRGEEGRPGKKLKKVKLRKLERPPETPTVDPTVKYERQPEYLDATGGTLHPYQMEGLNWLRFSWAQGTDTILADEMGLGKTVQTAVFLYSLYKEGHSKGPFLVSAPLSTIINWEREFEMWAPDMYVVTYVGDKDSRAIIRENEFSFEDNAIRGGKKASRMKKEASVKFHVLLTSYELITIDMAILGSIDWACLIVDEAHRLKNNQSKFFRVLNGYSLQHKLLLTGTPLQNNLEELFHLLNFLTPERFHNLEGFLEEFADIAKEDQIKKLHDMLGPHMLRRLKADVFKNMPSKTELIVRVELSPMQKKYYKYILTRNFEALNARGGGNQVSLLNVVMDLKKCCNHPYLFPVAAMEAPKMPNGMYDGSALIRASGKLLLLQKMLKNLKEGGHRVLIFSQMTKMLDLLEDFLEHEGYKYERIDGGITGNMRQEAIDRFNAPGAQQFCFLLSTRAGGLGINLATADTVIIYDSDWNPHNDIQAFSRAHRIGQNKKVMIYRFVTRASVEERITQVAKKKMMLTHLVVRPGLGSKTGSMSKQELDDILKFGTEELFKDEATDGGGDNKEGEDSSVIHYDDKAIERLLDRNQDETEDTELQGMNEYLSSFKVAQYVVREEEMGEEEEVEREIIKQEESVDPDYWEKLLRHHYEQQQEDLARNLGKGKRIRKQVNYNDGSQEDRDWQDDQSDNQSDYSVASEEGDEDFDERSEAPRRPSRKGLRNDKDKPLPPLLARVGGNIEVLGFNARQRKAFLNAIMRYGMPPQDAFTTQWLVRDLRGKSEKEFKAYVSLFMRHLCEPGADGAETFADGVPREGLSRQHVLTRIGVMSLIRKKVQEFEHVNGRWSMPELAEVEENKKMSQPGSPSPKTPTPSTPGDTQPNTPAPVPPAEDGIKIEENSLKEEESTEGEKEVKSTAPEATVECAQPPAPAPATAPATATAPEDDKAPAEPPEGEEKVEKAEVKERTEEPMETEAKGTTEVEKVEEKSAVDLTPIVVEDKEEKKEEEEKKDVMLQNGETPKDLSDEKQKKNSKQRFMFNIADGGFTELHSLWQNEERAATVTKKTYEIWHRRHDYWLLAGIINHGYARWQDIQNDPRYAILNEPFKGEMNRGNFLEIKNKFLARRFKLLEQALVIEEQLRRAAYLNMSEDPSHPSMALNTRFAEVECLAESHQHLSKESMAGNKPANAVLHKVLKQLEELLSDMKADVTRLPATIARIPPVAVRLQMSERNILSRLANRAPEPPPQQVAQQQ
UniProt Q9Z148: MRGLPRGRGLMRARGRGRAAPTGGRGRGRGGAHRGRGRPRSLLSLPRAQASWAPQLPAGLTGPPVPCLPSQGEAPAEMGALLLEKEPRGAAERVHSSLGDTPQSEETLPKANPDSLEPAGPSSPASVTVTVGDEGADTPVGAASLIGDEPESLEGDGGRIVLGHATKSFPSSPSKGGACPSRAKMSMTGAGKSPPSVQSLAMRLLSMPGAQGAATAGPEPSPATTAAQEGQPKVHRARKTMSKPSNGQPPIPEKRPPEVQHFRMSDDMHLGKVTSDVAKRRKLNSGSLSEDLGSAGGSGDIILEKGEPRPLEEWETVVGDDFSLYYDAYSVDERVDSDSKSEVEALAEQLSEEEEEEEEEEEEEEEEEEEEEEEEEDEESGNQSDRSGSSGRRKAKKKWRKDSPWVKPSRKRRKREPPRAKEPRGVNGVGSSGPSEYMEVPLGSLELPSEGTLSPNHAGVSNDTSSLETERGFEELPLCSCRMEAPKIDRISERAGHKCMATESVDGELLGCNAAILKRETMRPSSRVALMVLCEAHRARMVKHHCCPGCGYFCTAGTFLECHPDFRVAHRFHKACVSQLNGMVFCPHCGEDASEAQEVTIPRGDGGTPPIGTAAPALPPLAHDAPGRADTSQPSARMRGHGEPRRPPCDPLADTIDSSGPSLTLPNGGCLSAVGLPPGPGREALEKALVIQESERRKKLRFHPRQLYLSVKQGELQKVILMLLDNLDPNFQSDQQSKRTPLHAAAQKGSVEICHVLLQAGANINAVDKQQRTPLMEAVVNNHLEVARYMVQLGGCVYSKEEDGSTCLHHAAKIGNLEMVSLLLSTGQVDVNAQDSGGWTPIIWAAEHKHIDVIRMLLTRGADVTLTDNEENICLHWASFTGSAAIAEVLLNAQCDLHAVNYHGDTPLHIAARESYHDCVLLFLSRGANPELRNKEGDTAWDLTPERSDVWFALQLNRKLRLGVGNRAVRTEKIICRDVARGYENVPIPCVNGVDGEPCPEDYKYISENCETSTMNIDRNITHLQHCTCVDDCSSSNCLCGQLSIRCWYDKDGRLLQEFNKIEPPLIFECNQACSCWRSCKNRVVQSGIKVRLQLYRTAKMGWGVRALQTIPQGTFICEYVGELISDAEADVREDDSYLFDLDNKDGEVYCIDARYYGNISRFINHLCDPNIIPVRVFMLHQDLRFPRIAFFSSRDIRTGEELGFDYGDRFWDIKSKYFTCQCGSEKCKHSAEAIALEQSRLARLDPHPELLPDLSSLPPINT

Substance	binding
CHD4 (from UniProt Q6PDQ2 1-1915)	binds
G9a (from UniProt Q9Z148 1-1263)	binds
